Results published in PubChem BioAssay AID905 (National Center for Advancing Translational Sciences (NCATS), 2007).
Inconclusive results, whose numbers are uncertain, are shown with a selection of clear calls. Where the call is inconclusive, the potency comes from a doubtful curve fit. Activity calls are given as the source filed them. Calls follow the shape of the dose curve; as a rule, active = well fitted curve in the direction sought with a large enough effect; inconclusive = small, poorly fitted or top-dose-only effect, or another doubt; inactive = no such curve, though single readings can be large or run the other way.

Experiment: Cell Viability - CRE-beta lactamase CHO cell - 24 hr assay
Details: CRE-bla CHO viability, ATP luminescence; activity, negative = viability loss: at 46.1 µM (top of the series)
Description: NIH Molecular Libraries Screening Centers Network [MLSCN] NIH Chemical Genomics Center [NCGC] National Institutes of Environmental Health Sciences [NIEHS] National Toxicology Program [NTP] MLSCN Grant: 1X01MH079867-01 Assay Provider: Marshall W. Nirenberg, U.S. National Heart, Lung and Blood Institute NCGC Assay Overview: We have developed a 1536-well cell-based assay for quantitative high throughput screening (qHTS) against a number of cell lines to determine in vitro cytotoxicity of small molecules. This particular assay uses CRE-bla CHO cell line from Invitrogen.
NCGC Assay Protocol Summary: The CellTiter-Glo luminescent cell viability assay (Promega) is a homogeneous method to measure the number of viable cells in culture. The end point readout of this assay is based on quantitation of intracellular ATP, an indicator of metabolic activity, using the luciferase reaction. Luciferase catalyzes the oxidation of beetle Luciferin to oxyluciferin and light in the presence of ATP. The luminescent signal is proportional to amount of ATP present. Using the CellTiter-Glo luminescent cell viability assay, the amount of cellular ATP was measured in the CRE-bla CHO cell line with complete culture medium following compound treatment for 24 hours. The assay was performed in opaque white Kalypsys 1536-well plates. In the screen, tamoxifen was used as positive control. The selected compounds were measured for their ability to cause acute toxicity in the cell line, as reflected by a decrease in intracellular ATP levels, in a concentration-dependent manner. Data were normalized to the controls for basal activity (DMSO only) and 100% inhibition (100 uM tamoxifen). AC50 values were determined from concentration-response data modeled with the standard Hill equation. NCGC Assay Protocol Summary 1. Reagent; 5 uL; 2000 CHO cells/well 2. Time; overnight; 37 C incubation 3. Compounds; 23 nL; 5.9 nM to 46 uM 4. Controls; 23 nL; Tamoxifen 4.5 nM to 92 uM 5. Time; 24 hr; 37 C incubation 6. Reagent; 5 uL; CellTiter Glo reagent 7. Time; 20 min; Room Temperature 8. Detection; Luminescence; Viewlux plate reader Keywords: cell viability, cytotoxicity, CHO cell line, luminescence, MLSMR, MLSCN, NIH Roadmap, qHTS, NCGC

SMILES	Potency	activity, negative = viability loss
COc1nc(Nc2nc3ccccc3c(=O)[nH]2)nc2ccc(C)cc12	inconclusive: 3.98 µM [inhibitor, full curve]	–
CCc1nc(SCC(=O)Nc2ccc3c(c2)OCCO3)c2oc3ccccc3c2n1	–	inconclusive: -50.6% [inhibitor]
Cc1nn(-c2ccccc2)c2sc(C(=O)N(CC(=O)NC(C)(C)C)Cc3ccco3)cc12	–	inconclusive: -31.1% [inhibitor]
CC[C@]1(O)C[C@@H]2CN(CCc3c([nH]c4ccccc34)[C@](C(=O)OC)(c3cc4c(cc3OC)N(C)[C@H]3[C@](O)(C(=O)OC)[C@@H](C(=O)OC)[C@@]5(CC)C=CCN6CC[C@@]43[C@@H]65)C2)C1	inconclusive: 1 µM [inhibitor, full curve, poor fit]	–
Cc1ccc(C)c(N2CCN(S(=O)(=O)c3ccc4c(c3)OCCO4)CC2)c1	inactive	–
Cc1cc(C)n(-c2nc(Nc3ccccc3)nc(-n3nc(C)cc3C)n2)n1	inactive	–
Cn1nc(-c2ccc(N3CCOCC3)c(NS(=O)(=O)c3ccccc3)c2)c2ccccc2c1=O	inconclusive: 15.8 µM [inhibitor, partial curve]	–
COc1ccc(OC)c(NC(=O)c2cn(C)c(=O)c3cc(OC)c(OC)cc23)c1	inactive	–
CSc1nnc2c3ccccc3n(CCc3ccccc3)c2n1	inconclusive: 12.6 µM [inhibitor, full curve]	–
C=CCn1c(SCC(=O)Nc2sccc2C(N)=O)nc2sc(C)c(C)c2c1=O	inconclusive: 15.8 µM [inhibitor, partial curve]	–
COc1ccc(C2=Nn3c(nnc3-c3ccccc3OC)SC2)cc1OC	inconclusive: 2 µM [inhibitor, full curve, poor fit]	–
CCn1c2ccccc2c2cc(Nc3cc(C)nc4ncnn34)ccc21	inactive	–
COc1cccc2c(C)nc(Nc3nc(CSc4nnc(C)s4)cc(=O)[nH]3)nc12	–	inconclusive: -52.3% [inhibitor]
Cc1cc(C)nc(N2CCN(c3nc(C)nc4c3oc3ccccc34)CC2)n1	inactive	–
COC(=O)Nc1nc2ccc(C(=O)c3cccs3)cc2[nH]1	inconclusive: 0.794 µM [inhibitor, full curve, poor fit]	–
COc1cc(-c2nnc3sc(C4CCCCC4)nn23)cc(OC)c1OC	inconclusive: 12.6 µM [inhibitor, partial curve]	–
COc1ccc(Nc2nc(Nc3ccc(OC)cc3)nc(-n3[nH]c(=O)c(C)c3C)n2)cc1	inconclusive: 7.94 µM [inhibitor, full curve]	–
CCOC(=O)C1=C(CN2CCC(C)CC2)NC(=O)NC1c1ccc(Cl)cc1 (centres undefined)	inactive	–
Cn1c(/C(C#N)=C/Nc2ccccn2)nc2ccccc21	inactive	–
COc1ccc(C2c3c(oc4ccccc4c3=O)C(=O)N2CCN2CCOCC2)cc1OC (centres undefined)	inactive	–
CCn1cc(C(=O)Nc2ccc3c(c2)OCCO3)c2cc(OC)c(OC)cc2c1=O	inactive	–
O=C(Nc1ccc(-c2cn3ccsc3n2)cc1)c1ccc(F)c(S(=O)(=O)N2CCOCC2)c1	–	inconclusive: -39.2% [inhibitor]
CCCCCOC(=O)c1[nH]c2c(c1C)C(=O)CC(c1ccco1)C2 (centres undefined)	inactive	–
Clc1ccc(C2=Nn3c(nnc3-c3n[nH]c4c3CCC4)SC2)cc1Cl	inconclusive: 15.8 µM [inhibitor, partial curve]	–

Reprinted at random: 2 entries already listed, in no set order.
SMILES	Potency	activity, negative = viability loss
CCc1nc(SCC(=O)Nc2ccc3c(c2)OCCO3)c2oc3ccccc3c2n1	–	inconclusive: -50.6% [inhibitor]
Cc1ccc(C)c(N2CCN(S(=O)(=O)c3ccc4c(c3)OCCO4)CC2)c1	inactive	–
